According to PMC7618310:
No constants are given. Whether binding was seen depends on the method and setting. In cells and extracts the contact can be indirect. A yes stands for co-enrichment or nearness to the bait. Other partners may have been found. For part of these data: No binding means not detected with the bait.

Amino acid sequences for entries named in this document (tags omitted).
UniProt Q8N4C6: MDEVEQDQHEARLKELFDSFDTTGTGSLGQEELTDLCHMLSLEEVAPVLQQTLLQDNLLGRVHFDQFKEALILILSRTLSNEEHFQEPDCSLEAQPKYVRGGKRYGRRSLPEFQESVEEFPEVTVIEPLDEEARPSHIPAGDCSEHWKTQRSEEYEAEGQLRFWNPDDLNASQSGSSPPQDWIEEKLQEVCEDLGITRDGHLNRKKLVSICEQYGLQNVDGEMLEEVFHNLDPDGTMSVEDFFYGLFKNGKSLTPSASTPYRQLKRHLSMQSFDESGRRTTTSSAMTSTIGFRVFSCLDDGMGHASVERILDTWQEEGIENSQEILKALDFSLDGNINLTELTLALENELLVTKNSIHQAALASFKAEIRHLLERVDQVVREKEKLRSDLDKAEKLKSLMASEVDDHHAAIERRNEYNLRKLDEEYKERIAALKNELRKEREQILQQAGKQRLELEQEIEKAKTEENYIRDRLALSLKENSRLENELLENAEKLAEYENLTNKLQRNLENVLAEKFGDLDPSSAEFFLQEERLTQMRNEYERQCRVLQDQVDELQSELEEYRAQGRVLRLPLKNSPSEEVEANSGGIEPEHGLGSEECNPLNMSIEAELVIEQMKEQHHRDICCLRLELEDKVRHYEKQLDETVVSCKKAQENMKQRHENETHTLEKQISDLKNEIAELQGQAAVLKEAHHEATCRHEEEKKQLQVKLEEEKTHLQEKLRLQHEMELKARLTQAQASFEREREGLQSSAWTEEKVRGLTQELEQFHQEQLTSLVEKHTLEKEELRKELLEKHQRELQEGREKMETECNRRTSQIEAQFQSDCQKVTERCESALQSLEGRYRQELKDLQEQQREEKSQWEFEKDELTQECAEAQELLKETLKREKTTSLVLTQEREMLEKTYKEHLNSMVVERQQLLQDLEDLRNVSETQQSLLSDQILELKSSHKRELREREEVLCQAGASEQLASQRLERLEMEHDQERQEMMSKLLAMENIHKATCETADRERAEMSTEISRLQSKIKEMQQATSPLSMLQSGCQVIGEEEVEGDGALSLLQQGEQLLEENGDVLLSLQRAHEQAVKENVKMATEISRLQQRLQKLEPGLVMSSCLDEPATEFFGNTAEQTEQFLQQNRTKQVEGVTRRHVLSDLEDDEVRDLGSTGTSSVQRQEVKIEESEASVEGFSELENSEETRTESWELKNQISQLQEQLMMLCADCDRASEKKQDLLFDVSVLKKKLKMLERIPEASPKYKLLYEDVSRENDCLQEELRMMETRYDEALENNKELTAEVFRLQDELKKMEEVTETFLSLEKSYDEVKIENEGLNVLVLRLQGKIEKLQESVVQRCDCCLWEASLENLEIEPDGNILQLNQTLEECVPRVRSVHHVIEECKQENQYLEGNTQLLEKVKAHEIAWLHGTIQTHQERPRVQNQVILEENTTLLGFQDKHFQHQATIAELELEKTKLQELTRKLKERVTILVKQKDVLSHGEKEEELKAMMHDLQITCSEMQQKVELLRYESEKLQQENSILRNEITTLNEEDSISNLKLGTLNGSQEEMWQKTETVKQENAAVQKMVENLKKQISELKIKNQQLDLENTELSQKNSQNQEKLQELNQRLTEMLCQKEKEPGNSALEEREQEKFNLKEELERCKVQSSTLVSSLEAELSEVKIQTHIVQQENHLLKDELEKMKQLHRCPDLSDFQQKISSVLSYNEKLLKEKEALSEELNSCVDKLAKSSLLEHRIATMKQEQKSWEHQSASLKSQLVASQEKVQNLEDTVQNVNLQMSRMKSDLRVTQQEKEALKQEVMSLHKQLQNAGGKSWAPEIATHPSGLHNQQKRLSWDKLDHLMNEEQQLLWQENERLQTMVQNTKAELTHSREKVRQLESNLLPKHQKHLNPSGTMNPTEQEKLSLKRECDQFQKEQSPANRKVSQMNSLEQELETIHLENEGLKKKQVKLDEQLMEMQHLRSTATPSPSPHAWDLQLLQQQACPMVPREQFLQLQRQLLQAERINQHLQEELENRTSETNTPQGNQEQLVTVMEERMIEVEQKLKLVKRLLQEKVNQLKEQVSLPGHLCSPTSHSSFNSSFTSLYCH

How the values were obtained:
[1] = biological target: T1, CAPture peptide (biotinylated 33-residue peptide from the low-complexity region of CCDC61); assay: affinity purification with mass spectrometry; CAPture-MS from HEK293T cells treated with 150 nM centrinone for 8 days (centrioles depleted), n = 3 CAPture and n = 2 bead-only, LFQ against control cells; only the target purified
T1 sequence (peptide, biotin on the N-terminus (Biotin-SPSPT...)): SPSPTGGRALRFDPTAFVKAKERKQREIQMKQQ

[2] = biological target: T1, CAPture peptide (biotinylated 33-residue peptide from the low-complexity region of CCDC61); assay: condition: only centrinone-treated HEK293T cells (centrioles absent); affinity purification with mass spectrometry; CAPture-MS from HEK293T cells treated with 150 nM centrinone for 8 days (centrioles depleted), n = 3 CAPture and n = 2 bead-only, LFQ against control cells; only the target purified
[3] = biological target: T1, CAPture peptide (biotinylated 33-residue peptide from the low-complexity region of CCDC61); assay: affinity purification with mass spectrometry; CAPture-MS: biotinylated peptide on streptavidin Dynabeads M-280, sonicated whole-cell lysates (HEK293T, HAP1, U251, Jurkat, N1E-115, mouse spleen and others; also CEP83-KO HAP1 for proteins that remained), CAPture buffer with 300 mM NaCl, 2 h at 4 °C, on-bead digestion; shotgun, LFQ or TMT; bead-only control; only the target purified

With Ninein (from UniProt Q8N4C6 1-2090) the binding [1] was “binds”, the binding [2] was “no binding” and the binding [3] was “binds”.
